Laboratory results: PubChem BioAssay AID2675 (National Center for Advancing Translational Sciences (NCATS), 2010)
Hit rate of the full screen: of about 280,000 compounds, about 100 (0.036%) were called active. All entries are inconclusive by the source's own rule. Clear calls are listed elsewhere. Calls follow the shape of the dose curve; as a rule, active = well fitted inhibition curve with a large enough effect in the signal ratio, with a control signal flat (not every such curve was filed as active); inconclusive = small, poorly fitted or top-dose-only effect, or effect the other way, or a change in a side signal; inactive = no such curve, though single readings can be large or run the other way; the % refers to the signal ratio.

Amino acid sequences for entries named in this document (tags omitted).
UniProt Q9NR56, whole entry: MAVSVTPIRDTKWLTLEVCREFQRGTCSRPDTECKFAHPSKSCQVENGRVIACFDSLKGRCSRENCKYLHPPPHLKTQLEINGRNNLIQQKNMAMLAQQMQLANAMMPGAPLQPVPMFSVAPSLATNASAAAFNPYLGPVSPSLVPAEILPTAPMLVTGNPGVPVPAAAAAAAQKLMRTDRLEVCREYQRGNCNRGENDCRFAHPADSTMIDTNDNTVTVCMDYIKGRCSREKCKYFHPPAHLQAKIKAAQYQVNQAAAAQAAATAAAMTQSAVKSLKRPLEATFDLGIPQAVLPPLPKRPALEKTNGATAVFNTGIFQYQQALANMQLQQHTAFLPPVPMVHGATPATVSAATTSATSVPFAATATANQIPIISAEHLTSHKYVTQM

The compounds below were run against Muscleblind-like protein 1 (Homo sapiens) (UniProt Q9NR56) (assay: qHTS Assay for Inhibitors of MBNL1-poly(CUG) RNA binding). Conditions: TR-FRET MBNL1-His/biotin-(CUG)12 binding, 665/545 ratio.
Potency is read from the fitted curve at half-maximal effect.

Q: For `O=[N+]([O-])c1cc([N+](=O)[O-])c(-n2nnc3ccccc32)c([N+](=O)[O-])c1`, which Potency is on record?
A: inconclusive: 28.2 µM

Q: `Cc1nc2ccc3ccccc3c2s1.O=[N+]([O-])c1cc([N+](=O)[O-])c(O)c([N+](=O)[O-])c1` was tested. Which Potency did it give?
A: inconclusive: 25.1 µM

Q: With `O=[N+]([O-])c1cc([N+](=O)[O-])c(Nc2nnnn2CCO)c([N+](=O)[O-])c1` as the compound, how does the Potency read?
A: inconclusive: 11.2 µM

Q: How did the Potency turn out when `CCc1ccc(OP(C)(=O)N2CCN(c3ccc([N+](=O)[O-])cc3)CC2)cc1` (stereo not drawn) was run?
A: inconclusive: 31.6 µM

Q: For `O=[N+]([O-])c1ccc2c(c1)C=Nc1ccccc1O2`, which Potency is on record?
A: inconclusive: 11.2 µM

Q: For `Cc1ccc(NP(C)(=O)Oc2ccccc2)c(C)c1` (stereo not drawn), which Potency is on record?
A: inconclusive: 5.62 µM

Q: `COc1ccc(OP(C)(=O)Nc2ccccc2Br)cc1` (stereo not drawn) was tested. Which Potency did it give?
A: inconclusive: 39.8 µM

Q: `Cc1nc2ccc3ccccc3c2o1.O=[N+]([O-])c1cc([N+](=O)[O-])c(O)c([N+](=O)[O-])c1` was tested. Which Potency did it give?
A: inconclusive: 25.1 µM

Q: With `O=[N+]([O-])c1cc([N+](=O)[O-])c(Nc2ccccn2)c([N+](=O)[O-])c1` as the compound, how does the Potency read?
A: inconclusive: 10 µM

Q: For `N#[O+].[C-]#N.[C-]#N.[C-]#N.[C-]#N.[C-]#N.[Fe+2].[Na+].[Na+]`, which Potency is on record?
A: inconclusive: 4.47 µM

Q: For `CN(C)C(=O)c1c([N+](=O)[O-])cc([N+](=O)[O-])cc1[N+](=O)[O-]`, which Potency is on record?
A: inconclusive: 6.31 µM

Q: Which Potency does the source give for `Cc1cc(-c2cccc3ccccc23)c(C)cn1.O=[N+]([O-])c1cc([N+](=O)[O-])c(O)c([N+](=O)[O-])c1` here?
A: inconclusive: 14.1 µM

Q: For `O=[N+]([O-])c1ccc(OP2(=O)COCCO2)cc1` (stereo not drawn), which Potency is on record?
A: inconclusive: 20 µM
